From paper PMC4994017
These are yes or no findings as the source states them, for the method shown. Binding seen in cells or lysates may run through a third protein. Some entries that bind do so weakly or less than the wild type.

Molecular target: heterogeneous nuclear ribonucleoprotein K (hnRNPK) (human (endogenous in HCT116p53KO)) (UniProt P61978)
Assay: co-IP; anti-hnRNPK (ab39975, Abcam) immunoprecipitation from HCT116p53KO lysates with the Magna RIP kit (RNA immunoprecipitation); isotype-matched antibodies as control; eIF4G2 detected by western blot

B1: eIF4G2 (protein, UniProt P78344 1-907)
chain: MESAIAEGGASRFSASSGGGGSRGAPQHYPKTAGNSEFLGKTPGQNAQKWIPARSTRRDDNSAANNSANEKERHDAIFRKVRGILNKLTPEKFDKLCLELLNVGVESKLILKGVILLIVDKALEEPKYSSLYAQLCLRLAEDAPNFDGPAAEGQPGQKQSTTFRRLLISKLQDEFENRTRNVDVYDKRENPLLPEEEEQRAIAKIKMLGNIKFIGELGKLDLIHESILHKCIKTLLEKKKRVQLKDMGEDLECLCQIMRTVGPRLDHERAKSLMDQYFARMCSLMLSKELPARIRFLLQDTVELREHHWVPRKAFLDNGPKTINQIRQDAVKDLGVFIPAPMAQGMRSDFFLEGPFMPPRMKMDRDPLGGLADMFGQMPGSGIGTGPGVIQDRFSPTMGRHRSNQLFNGHGGHIMPPTQSQFGEMGGKFMKSQGLSQLYHNQSQGLLSQLQGQSKDMPPRFSKKGQLNADEISLRPAQSFLMNKNQVPKLQPQITMIPPSAQPPRTQTPPLGQTPQLGLKTNPPLIQEKPAKTSKKPPPSKEELLKLTETVVTEYLNSGNANEAVNGVREMRAPKHFLPEMLSKVIILSLDRSDEDKEKASSLISLLKQEGIATSDNFMQAFLNVLDQCPKLEVDIPLVKSYLAQFAARAIISELVSISELAQPLESGTHFPLFLLCLQQLAKLQDREWLTELFQQSKVNMQKMLPEIDQNKDRMLEILEGKGLSFLFPLLKLEKELLKQIKLDPSPQTIYKWIKDNISPKLHVDKGFVNILMTSFLQYISSEVNPPSDETDSSSAPSKEQLEQEKQLLLSFKPVMQKFLHDHVDLQVSALYALQVHCYNSNFPKGMLLRFFVHFYDMEIIEEEAFLAWKEDITQEFPGKGKALFQVNQWLTWLETAEEEESEEEAD
- binding: binds
